Test results published in paper PMC3978507, “Fusion of a Short HA2-Derived Peptide Sequence to Cell-Penetrating Peptides Improves Cytosolic Uptake, but Enhances Cytotoxic Activity” (Pharmaceuticals, 2009).
Positions of bridges follow the written chain, without caps; N, C: chain ends. Residues, ends and D or L forms follow the SMILES beside them. Chains are numbered I, II in the order given.

Test: CD spectroscopy
Type: physicochemical
Details: 20 µM peptide; for R-value (ratio of molar ellipticity at 222 nm and 207 nm), 50% TFE: 10 mM phosphate buffer pH 7 with 50% TFE, 20 °C

Compound	R-value (ratio of molar ellipticity at 222 nm and 207 nm), phosphate buffer (10 mM phosphate buffer pH 7, 20 °C)	R-value (ratio of molar ellipticity at 222 nm and 207 nm), 50% TFE
CC[C@H](C)[C@H](NC(=O)[C@H](C)NC(=O)[C@@H](NC(=O)[C@H](CCC(N)=O)NC(=O)[C@@H]1CCCN1C(=O)[C@H](Cc1ccccc1)NC(=O)[C@@H](NC(=O)[C@H](Cc1c[nH]cn1)NC(=O)[C@H](Cc1ccccc1)NC(=O)[C@H](CCCCNC(=O)[C@H](C)NC(=O)[C@H](Cc1ccccc1)NC(=O)[C@H](CCCCN)NC(=O)[C@H](CCCNC(=N)N)NC(=O)[C@H](CCCCN)NC(=O)[C@H](CCCCN)NC(=O)[C@H](CCCCN)NC(=O)[C@@H]1CCCN1C(=O)[C@H](C)NC(=O)[C@H](CCCCN)NC(=O)[C@H](CCCNC(=N)N)NC(=O)[C@H](CCCCN)NC(=O)[C@@H](N)CCCCN)NC(=O)[C@H](CCC(=O)O)NC(=O)[C@H](CC(C)C)NC(=O)[C@H](CC(C)C)NC(=O)[C@H](CCC(=O)O)NC(=O)[C@H](C)NC(=O)[C@H](CC(C)C)NC(=O)[C@H](C)NC(=O)[C@H](CCC(=O)O)NC(=O)[C@H](CC(C)C)NC(=O)[C@H](CC(C)C)NC(=O)CN)[C@@H](C)O)[C@@H](C)O)C(=O)NCC(=O)N[C@H](C(=O)NCC(=O)N[C@@H](C)C(=O)N1CCC[C@H]1C(N)=O)C(C)C [N-E5L-hCT(18-32)-k7] (I: H-GLLEALAELLEKFHTFPQTAIGVGAP-NH2 / II: H-KKRKAPKKKRKFA; amide I:12-II:C; N-terminus assumed)	0.40	0.64
GLLEALAELLE [N-E5L, truncated, modified E5L-peptide; analogue of the HA fusion-peptide from the N-terminal region of the HA2 subunit]		0.68
